Assay results as given in patent US8188002B2, “3-amino-2-nitro-substituted benzoyl derivatives and use thereof as herbicides” (Bayer Cropscience AG, priority 2009, dated 2012).
Some results were stated once for a whole list of compounds, not compound by compound.

What was measured:
Assay type in all cases: in vivo
Abuthilon theophrasti [1] = assay: Pre-emergence herbicidal action against harmful plants; settings: application rate 320 g/ha, visual assessment after 3 weeks vs untreated controls
Abuthilon theophrasti [2] = assay: Post-emergence herbicidal action against harmful plants; settings: application rate 80 g/ha, visual rating after about 3 weeks vs untreated controls
Echinocloa crus galli [3] = assay: as above; settings: application rate 80 g/ha, visual rating after about 3 weeks vs untreated controls
Echinocloa crus galli [4] = assay: Pre-emergence herbicidal action against harmful plants; settings: application rate 320 g/ha, visual assessment after 3 weeks vs untreated controls

**Q.** Which results are given for CS(=O)(=O)c1ccc(C(=O)C2C(=O)CCCC2=O)c([N+](=O)[O-])c1N [1-43]?
**A.** herbicidal activity in percent (Abuthilon theophrasti [1]): at least 90%; herbicidal activity in percent (Abuthilon theophrasti [2]): at least 80%; herbicidal activity in percent (Echinocloa crus galli [3]): at least 80%; herbicidal activity in percent (Echinocloa crus galli [4]): at least 90%

**Q.** For CCNc1c(Cl)ccc(C(=O)C2C(=O)CC(C)CC2=O)c1[N+](=O)[O-] (stereo not drawn) [2-4], which “herbicidal activity in percent” value (Abuthilon theophrasti [1]) is on record?
**A.** at least 90%

**Q.** What about the “herbicidal activity in percent” value (Abuthilon theophrasti [2]) of the same compound?
**A.** at least 80%

**Q.** And the “herbicidal activity in percent” value (Echinocloa crus galli [3])?
**A.** at least 80%

**Q.** And the “herbicidal activity in percent” value (Echinocloa crus galli [4])?
**A.** at least 90%

**Q.** For CC1(C)CCC(=O)C(C(=O)c2ccc(Cl)c(NCC3CC3)c2[N+](=O)[O-])C1=O (stereo not drawn) [3-8], which “herbicidal activity in percent” value (Abuthilon theophrasti [1]) is on record?
**A.** at least 90%

**Q.** And the “herbicidal activity in percent” value (Abuthilon theophrasti [2])?
**A.** at least 80%

**Q.** And the “herbicidal activity in percent” value (Echinocloa crus galli [3])?
**A.** at least 80%

**Q.** And the “herbicidal activity in percent” value (Echinocloa crus galli [4])?
**A.** at least 90%

**Q.** How did the “herbicidal activity in percent” value (Abuthilon theophrasti [1]) turn out when CC(C)CNc1c(Cl)ccc(C(=O)C2C(=O)C3CCC(C3)C2=O)c1[N+](=O)[O-] (stereo not drawn) [4-7] was run?
**A.** at least 90%

**Q.** And the “herbicidal activity in percent” value (Abuthilon theophrasti [2])?
**A.** at least 80%

**Q.** And the “herbicidal activity in percent” value (Echinocloa crus galli [3])?
**A.** at least 80%

**Q.** What about the “herbicidal activity in percent” value (Echinocloa crus galli [4]) of the same compound?
**A.** at least 90%

**Q.** CNc1c(Cl)ccc(C(=O)C2C(=O)CCCC2=O)c1[N+](=O)[O-] [1-2] was tested. Which “herbicidal activity in percent” value (Abuthilon theophrasti [1]) did it give?
**A.** at least 90%

**Q.** What about the “herbicidal activity in percent” value (Abuthilon theophrasti [2]) of the same compound?
**A.** at least 80%

**Q.** What about the “herbicidal activity in percent” value (Echinocloa crus galli [3]) of the same compound?
**A.** at least 80%

**Q.** And the “herbicidal activity in percent” value (Echinocloa crus galli [4])?
**A.** at least 90%

**Q.** With Nc1c(F)ccc(C(=O)C2C(=O)C3CCC(C3)C2=O)c1[N+](=O)[O-] (stereo not drawn) [4-29] as the compound, how does the “herbicidal activity in percent” value (Abuthilon theophrasti [1]) read?
**A.** at least 90%

**Q.** What about the “herbicidal activity in percent” value (Abuthilon theophrasti [2]) of the same compound?
**A.** at least 80%

**Q.** And the “herbicidal activity in percent” value (Echinocloa crus galli [3])?
**A.** at least 80%

**Q.** And the “herbicidal activity in percent” value (Echinocloa crus galli [4])?
**A.** at least 90%
